Consider 41 compounds from PubChem BioAssay AID493014 (National Center for Advancing Translational Sciences (NCATS), 2011).

The other results are listed elsewhere or left out. Shown are side measurements of this screen, not its main read-out; they come without a call. Compounds called inactive in the main read-out are mostly missing here. Potencies come from curve fits of mixed quality, noted in brackets.

The assay can be described thus: qHTS Assay to Find Inhibitors of Chronic Active B-Cell Receptor Signaling. The note with it: ABC-DLBCL IkBa-CBG/CBR reporter, luminescence ratio (green luciferase fused to IkBa over red control in TMD8 lymphoma cells), 4 h. In outline: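 TMD8 human ABC-DLBCL cells with doxycycline-inducible IκBα–green luciferase fusion and unfused red luciferase, in 0.5% FBS medium; compounds up to 46 uM, 4 h at 37C. Green/red luminescence ratio, filter-overlap corrected, fitted to concentration-response curves.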

Setting [1] is: measured here: CBR red luminescence, cell number.

On to `O=C(c1ccco1)N1CCN(C2CC(=O)N(c3ccccc3)C2=O)CC1` (configuration not stated), for which the half-maximal activity concentration (AC50) (commonly the concentration giving half of the maximal activity seen) under setting [1] was 18.4 µM [rising, partial curve].

Consider `CCC(N=c1cc(-c2ccc(OC)cc2)oc2ccc(C)cc12)C(=O)O` (configuration not stated), for which, under setting [1], the AC50 is 0.116 µM [rising, full curve, poor fit].

As for `CN(C(=O)c1ccc2c(c1)N(Cc1ccccc1F)C(=O)c1ccccc1S2)C1CCCCC1`, under setting [1], the AC50 was 8.91 µM [falling, single point].

For the compound `CCOC(=O)c1c(C)oc2c1c(CN1CCN(C(=O)OCC)CC1)c(O)c1ccccc12`, the concentration at half-maximal activity (AC50) under setting [1] is 29.1 µM [falling, single point].

On to `O=C(N/N=C/c1cn[nH]c1-c1ccccc1)c1ccco1`, for which, under setting [1], the AC50 was 15.8 µM [falling, single point].

Turning to `O=C(Nc1ccc(S(=O)(=O)N2CCCCCC2)cc1)c1[nH]ncc1[N+](=O)[O-]`, under setting [1], the AC50 is 7.08 µM [rising, partial curve, poor fit].

On to `Cc1[nH]c2ccccc2c1Cc1n[nH]c(=S)n1C`, for which the AC50 under setting [1] was 18.4 µM [rising, partial curve, poor fit].

Consider `CC(C)CCc1noc(CN2CCN(c3ccc(Cl)cn3)CC2)n1`, for which the half-maximal activity concentration (AC50) under setting [1] is 0.708 µM [rising, full curve, poor fit].

With `COc1ccc2oc(C(=O)Nc3nc(-c4ccccn4)cs3)c(C)c2c1`, the AC50 under setting [1] was 29.1 µM [rising, single point].

Take `Cc1ccc(NC(=O)[C@@H](CC(C)C)NC(=O)[C@@H]2Cc3ccccc3CN2)cc1`: under setting [1], the AC50 was 0.355 µM [rising, full curve, poor fit].

Regarding `COc1cc(NC(=O)c2ccco2)c(OC)cc1NC(=O)CSc1ncc(-c2ccc(F)cc2)[nH]1`, the AC50 under setting [1] is 5.62 µM [falling, single point].

On to `CC(=O)N1CCN(c2ccc(NC(=O)c3ccc4c(c3)OCO4)cc2)CC1`, for which, under setting [1], the AC50 was 7.08 µM [falling, partial curve].

Take `N#C/C(=C\c1ccc(Sc2nc3ccccc3[nH]2)o1)c1ccccc1`: the AC50 under setting [1] is 20.6 µM [falling, single point].

Consider `Cc1ccc(NC(=O)COC(=O)C2(CC(=O)NC(C)(C)C)CCCC2)cc1C`, for which the AC50 under setting [1] was 6.51 µM [rising, single point].

On to `COC(=O)c1cccc(-n2c(C)cc(C=O)c2C)c1C`, for which, under setting [1], the AC50 was 29.1 µM [falling, single point].

For `COc1ccc(CNC(=O)COC(=O)c2cc(S(=O)(=O)N3CCOCC3)ccc2O)cc1OC`, under setting [1], the AC50 is 29.1 µM [rising, single point].

Take `COc1cc(CNCc2cccs2)cc(Br)c1OC`: the AC50 under setting [1] was 25.1 µM [rising, single point].

Regarding `Cc1ccc(S(=O)(=O)/C(C#N)=C/c2c(N3CCOCC3)nc3c(C)cccn3c2=O)cc1`, the AC50 under setting [1] was 3.98 µM [falling, full curve, poor fit].

As to `O=C(CSc1ncn(-c2ccccc2)n1)Nc1nc2c(s1)CCCC2`, the half-maximal activity concentration (AC50) under setting [1] was 0.461 µM [rising, full curve, poor fit].

In the case of `Cc1ccc(-c2sc(C(=O)NN)c(C)c2C#N)cc1`, the AC50 under setting [1] was 12.6 µM [falling, single point].

On to `FC(F)(F)c1cc(-c2ccccc2)nc2ncnn12`, for which the half-maximal activity concentration (AC50) under setting [1] is 0.13 µM [rising, full curve, poor fit].

As for `CC1S/C(=N/N=C2CCC(C(C)(C)C)CC2)NC1=O` (configuration not stated), under setting [1], the AC50 was 29.1 µM [rising, single point].

Regarding `O=C(c1cc(-c2ccc(Cl)c(Cl)c2)on1)N1CCN(c2ccccc2)CC1`, under setting [1], the concentration at half-maximal activity (AC50) is 2.82 µM [falling, full curve].

Consider `CCCOc1ccc(OC(=O)c2c(-c3ccccc3Cl)noc2C)cc1`, for which, under setting [1], the AC50 was 35.5 µM [rising, single point].

Consider `CC1(C)Cc2c(C#N)c(SCCC#N)nc(N3CCOCC3)c2CS1`, for which the AC50 under setting [1] was 0.0731 µM [rising, full curve, poor fit].

In the case of `CCOC(=O)c1sc(=S)n(-c2ccc(Cl)cc2)c1C`, under setting [1], the concentration at half-maximal activity (AC50) was 29.1 µM [rising, single point].

For `COc1cccc(OC)c1C(=O)Nc1cccc(S(=O)(=O)Nc2ccccc2Cl)c1`, under setting [1], the AC50 was 29.1 µM [falling, single point].

Regarding `O=C(Nc1ccc(OC(F)(F)F)cc1)c1cnc2n(c1=O)CCS2`, under setting [1], the AC50 is 0.82 µM [rising, full curve, poor fit].

`CCCC(=O)Nc1ccccc1NC(=O)CN(C)S(=O)(=O)c1ccccc1`: the AC50 under setting [1] is 0.651 µM [falling, partial curve, poor fit].

With `Cn1nnnc1SCc1ccc([N+](=O)[O-])cc1`, under setting [1], the AC50 was 5.17 µM [rising, full curve, poor fit].

Turning to `O=C(Nc1ccc2oc(-c3ccncc3)nc2c1)c1ccccc1F`, under setting [1], the half-maximal activity concentration (AC50) was 22.4 µM [falling, single point].

Consider `O=C(NCc1ccco1)C1CC(c2ccc(Cl)cc2)=NO1` (configuration not stated), for which, under setting [1], the AC50 is 5.01 µM [falling, partial curve, poor fit].

For the compound `CCN1C(=O)c2cccc3c(NC(=O)C4CCCCC4)ccc1c23`, the AC50 under setting [1] is 0.562 µM [rising, full curve, poor fit].

As for `Cc1cc(Nc2cc(Cl)cc(Cl)c2)nc(N)n1`, the concentration at half-maximal activity (AC50) is 14.1 µM [rising, partial curve, poor fit] under setting [1] and 12.6 µM [falling, partial curve, poor fit] (measured here: IkBa-CBG green luminescence).

Regarding `COC(=O)[C@@H]1CCCN1C(=O)c1cc(COc2cccc3cccnc23)on1`, the AC50 under setting [1] is 2.82 µM [falling, full curve].

Consider `Cc1occc1C(=O)/C(C#N)=C/c1ccc(O)c(Br)c1`, for which the AC50 under setting [1] was 0.794 µM [falling, full curve, poor fit].

Take `COc1cccc(-c2nnc(SCc3nc4ccccc4s3)n2C)c1`: the AC50 under setting [1] was 14.6 µM [rising, single point].

In the case of `CC(Sc1n[nH]c(N)n1)c1nc2scc(-c3cccs3)c2c(=O)[nH]1` (configuration not stated), the AC50 under setting [1] was 18.4 µM [rising, partial curve, poor fit].

Turning to `O=C(CCc1nc(-c2ccccc2)no1)NCc1ccco1`, the AC50 under setting [1] was 0.631 µM [rising, full curve, poor fit].

For `COc1ccccc1C(=O)NC(=S)Nc1cccnc1Cl`, under setting [1], the AC50 is 10 µM [falling, partial curve, poor fit].

Regarding `CC(C)NC(=O)N(C)C[C@H]1Oc2ccc(NC(=O)C3CCCCC3)cc2C(=O)N([C@H](C)CO)C[C@@H]1C`, the concentration at half-maximal activity (AC50) under setting [1] was 1.84 µM [rising, full curve].
